Earlier results on one compound are cited in patent publication US5744469A, “Method for treating dermatitis” (Eli Lilly and Company, priority 1996, dated 1998).

This data set relates to 5-HT1C receptor. Conditions: in vitro; cited from earlier work.

Take `Cc1cc2c(s1)Nc1ccccc1N=C2N1CCN(C)CC1` [2-methyl-4-(4-methyl-1-piperazinyl)-10H-thieno[2,3-b][1,5]benzodiazepine]: the “activity at the 5-HT1C receptor” value is reported as “active”.
